Assay results taken from doi:10.1101/2023.04.14.536847.
Results are given in words; binding and its absence hold for the method and conditions named. Some binding calls cover weakened binding; strength is not graded here. Where a sequence is shown, tags or fusion partners need not be part of it.

Target: DnaB, full-length, BACTH fusion (Myxococcus xanthus) (UniProt Q1D285)
Experiment: two-hybrid

- binding: binds
B1: DnaB, full-length, BACTH fusion (protein, UniProt Q1D285 1-456)
chain: MENVHEFREGRKVHEDLAAERAVLGAVLADNTLIAAVGEVVHPEDFSSPAHAQIFEAMLKLDGQSRQVDHLTLAEELKVLGHLVSVGGPAYLMRLDQVVPIASNAVQYAQIVKDQAIRRRLAQAGREIQDLASQETGELEVLLDEAERKVFLLAEKKREGDLRPVSELMEHTLDLLDKMKAAATGITGLSTGYIDLDNQLTGLHAGELIILAARPGIGKTSFAMNIAVHAALKENKAVGIFSLEMPADQLLMRLLASTARVDMKKLRGGRLTPHDEEKFQEMAGALYNAPIYIDDSGGLSPFDLRAKARRVKQRDPRLSLIVIDYLQLMHQKGKVESRQLEVAEISRALKQLAKELEVPIIALSQLSRKVEDRKDGKPLLSDLRESGSIEQDADVVMFIHRETSDEAGPDGQPAQQSNTVIPVELIIAKQRNGPIGSIDLVFLAEYTRFESRSRSE
